Results taken from doi:10.1101/2020.05.27.118315.
Like-named read-outs stand apart in the source and are kept apart here. These are yes or no findings as the source states them, for the method shown. In cells and extracts the contact can be indirect. Here binding means that the protein was enriched with, or labelled near, the bait; the list need not be complete. Blank lines part the entries; values can stand above or below the molecule they belong to.

The chains behind the UniProt entries cited, without tags or fusion partners.
UniProt Q12315: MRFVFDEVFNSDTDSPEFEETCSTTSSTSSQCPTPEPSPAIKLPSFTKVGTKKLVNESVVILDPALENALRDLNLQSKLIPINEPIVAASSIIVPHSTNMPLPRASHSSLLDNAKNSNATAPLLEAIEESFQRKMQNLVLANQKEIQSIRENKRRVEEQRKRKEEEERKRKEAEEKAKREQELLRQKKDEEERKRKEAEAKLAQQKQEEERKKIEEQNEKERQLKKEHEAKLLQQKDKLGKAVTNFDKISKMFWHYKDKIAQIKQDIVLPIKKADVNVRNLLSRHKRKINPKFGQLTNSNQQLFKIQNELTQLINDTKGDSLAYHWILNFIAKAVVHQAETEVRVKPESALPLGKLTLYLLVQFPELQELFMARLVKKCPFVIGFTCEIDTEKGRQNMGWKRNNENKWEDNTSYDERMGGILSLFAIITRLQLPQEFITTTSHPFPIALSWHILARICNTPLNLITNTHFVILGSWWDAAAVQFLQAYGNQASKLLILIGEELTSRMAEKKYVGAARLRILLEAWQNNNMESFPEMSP

Tests used:
[1] = target: T1, Med13-3xHA (S. cerevisiae) (UniProt P38931); assay: affinity purification with mass spectrometry
T1 sequence: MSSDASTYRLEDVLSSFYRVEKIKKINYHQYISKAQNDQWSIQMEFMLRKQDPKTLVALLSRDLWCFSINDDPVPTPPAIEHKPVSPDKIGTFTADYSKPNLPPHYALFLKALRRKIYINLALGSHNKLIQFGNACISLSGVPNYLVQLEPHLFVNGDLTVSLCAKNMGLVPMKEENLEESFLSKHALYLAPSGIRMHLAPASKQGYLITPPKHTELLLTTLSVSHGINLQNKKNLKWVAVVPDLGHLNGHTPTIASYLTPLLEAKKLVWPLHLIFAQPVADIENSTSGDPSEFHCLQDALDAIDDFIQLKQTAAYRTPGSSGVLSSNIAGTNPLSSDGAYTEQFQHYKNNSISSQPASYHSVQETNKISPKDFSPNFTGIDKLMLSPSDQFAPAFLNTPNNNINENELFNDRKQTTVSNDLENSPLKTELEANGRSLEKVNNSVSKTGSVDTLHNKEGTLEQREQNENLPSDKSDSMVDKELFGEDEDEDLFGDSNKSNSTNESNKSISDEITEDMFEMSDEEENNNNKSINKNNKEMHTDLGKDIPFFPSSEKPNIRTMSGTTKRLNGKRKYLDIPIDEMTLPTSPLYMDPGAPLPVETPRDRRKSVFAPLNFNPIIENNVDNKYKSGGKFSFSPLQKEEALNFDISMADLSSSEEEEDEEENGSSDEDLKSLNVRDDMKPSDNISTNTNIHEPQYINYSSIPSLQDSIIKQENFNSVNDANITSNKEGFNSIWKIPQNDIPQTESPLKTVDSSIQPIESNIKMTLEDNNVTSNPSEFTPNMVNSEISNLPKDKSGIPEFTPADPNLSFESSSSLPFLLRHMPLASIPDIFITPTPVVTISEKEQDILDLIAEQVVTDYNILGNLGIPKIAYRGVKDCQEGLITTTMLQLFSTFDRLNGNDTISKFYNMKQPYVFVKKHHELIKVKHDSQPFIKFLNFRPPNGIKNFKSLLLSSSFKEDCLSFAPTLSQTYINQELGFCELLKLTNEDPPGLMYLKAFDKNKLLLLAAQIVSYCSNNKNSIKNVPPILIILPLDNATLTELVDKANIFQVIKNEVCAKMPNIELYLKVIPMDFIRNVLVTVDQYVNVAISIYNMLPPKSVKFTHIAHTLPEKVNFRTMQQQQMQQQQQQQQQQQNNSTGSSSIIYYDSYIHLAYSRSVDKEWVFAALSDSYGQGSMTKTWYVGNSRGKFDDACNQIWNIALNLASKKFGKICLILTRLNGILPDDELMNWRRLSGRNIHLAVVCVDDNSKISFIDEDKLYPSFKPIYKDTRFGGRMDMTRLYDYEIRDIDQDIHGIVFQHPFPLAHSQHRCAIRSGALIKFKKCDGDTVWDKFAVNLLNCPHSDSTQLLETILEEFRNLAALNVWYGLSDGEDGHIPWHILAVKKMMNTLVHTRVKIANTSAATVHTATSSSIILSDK

[2] = target: T1, Med13-3xHA (S. cerevisiae); assay: affinity purification with mass spectrometry; remark: listed apart in the source

binding [1]: binds
Molecule: Gle1 (from UniProt Q12315 1-538)

binding [2]: binds
B1: Snx4 (protein, UniProt P47057 1-423)
chain: MTDKGKNDLTSKAKDKARGNPEKPPYWFEIIVSDPQKRTGDPGSSSGYVSYQISTKTNNTSFYDNRGDPESIIVVHRRYSDLLLLHDILLNRFPTCIIPPLPDKKVFQYIAGDRFSQRFTQKRCHSLQNFLRRVSLHPDLSQSKVFKTFLVSKDWESHRKVLQDSLQPNKDEVTDAFMNAFKTVHKQNEEFTEIREKSDKLDRTVTKIDKLFHKVVKKNDSMSEDYTKLGSNLQELQELVTGENEELAAKLKIFNEGVTQLSYGLQDLTKYLDYEYIVDLKDLEHYIDSMRQLIKLKDQKQIDYEELSDYLTRSIKEKNNLISGYGGSNFFANKLEELAGINQEASRREKINKLEGKITSLTGELENAKKVADGFEQECLKEIDHFESVKTAEIKKSLGSLADHHIEFYERILEAWEKVDDSL
